According to article PMC2785806:
Results are given in words; binding and its absence hold for the method and conditions named. Binding seen in cells or lysates may run through a third protein.

Molecular target: RNA Pol II largest subunit, as precipitated with the 8WG16 monoclonal antibody against the carboxyl terminal domain (CTD) (Drosophila (endogenous in wild type embryos)), P04052
Experiment: co-IP; test of dAGO2 with RNA Pol II CTD; no figure is cited; the RNA Pol II antibody used is not told
Conditions: remark: other sources report otherwise

binding: no binding
B1: dAGO2, Q9VUQ5 1-1214 (protein)
chain: MGKKDKNKKGGQDSAAAPQPQQQQKQQQQRQQQPQQLQQPQQLQQPQQLQQPQQQQQQQPHQQQQQSSRQQPSTSSGGSRASGFQQGGQQQKSQDAEGWTAQKKQGKQQVQGWTKQGQQGGHQQGRQGQDGGYQQRPPGQQQGGHQQGRQGQEGGYQQRPPGQQQGGHQQGRQGQEGGYQQRPSGQQQGGHQQGRQGQEGGYQQRPPGQQQGGHQQGRQGQEGGYQQRPSGQQQGGHQQGRQGQEGGYQQRPPGQQQGGHQQGRQGQEGGYQQRPPGQQQGGHEQGRQGQEGGYQQRPSGQQQGGHQQGRQGQEGGYQQRPSGQQQGGHQQGRQGQEGGYQQRPSGQQQGGHQQGRQGQEGGYQQRPPGQQPNQTQSQGQYQSRGPPQQQQAAPLPLPPQPAGSIKRGTIGKPGQVGINYLDLDLSKMPSVAYHYDVKIMPERPKKFYRQAFEQFRVDQLGGAVLAYDGKASCYSVDKLPLNSQNPEVTVTDRNGRTLRYTIEIKETGDSTIDLKSLTTYMNDRIFDKPMRAMQCVEVVLASPCHNKAIRVGRSFFKMSDPNNRHELDDGYEALVGLYQAFMLGDRPFLNVDISHKSFPISMPMIEYLERFSLKAKINNTTNLDYSRRFLEPFLRGINVVYTPPQSFQSAPRVYRVNGLSRAPASSETFEHDGKKVTIASYFHSRNYPLKFPQLHCLNVGSSIKSILLPIELCSIEEGQALNRKDGATQVANMIKYAATSTNVRKRKIMNLLQYFQHNLDPTISRFGIRIANDFIVVSTRVLSPPQVEYHSKRFTMVKNGSWRMDGMKFLEPKPKAHKCAVLYCDPRSGRKMNYTQLNDFGNLIISQGKAVNISLDSDVTYRPFTDDERSLDTIFADLKRSQHDLAIVIIPQFRISYDTIKQKAELQHGILTQCIKQFTVERKCNNQTIGNILLKINSKLNGINHKIKDDPRLPMMKNTMYIGADVTHPSPDQREIPSVVGVAASHDPYGASYNMQYRLQRGALEEIEDMFSITLEHLRVYKEYRNAYPDHIIYYRDGVSDGQFPKIKNEELRCIKQACDKVGCKPKICCVIVVKRHHTRFFPSGDVTTSNKFNNVDPGTVVDRTIVHPNEMQFFMVSHQAIQGTAKPTRYNVIENTGNLDIDLLQQLTYNLCHMFPRCNRSVSYPAPAYLAHLVAARGRVYLTGTNRFLDLKKEYAKRTIVPEFMKKNPMYFV
